{"source": "patent US5646149A", "about": "“Compounds having both potent calcium antagonist and antioxidant activity and use thereof as cytoprotective agents” (Alcon Laboratories, Inc., priority 1995, dated 1997)", "assay": "Phospholipid oxidation assay in liposomes", "type": "biochemical", "experimental": "The DPPH assay is a chemical assay used to determine free radical scavenging activity. The retinal pieces, liver microsomes and phospholipid oxidation models measure antioxidant activity. The calcium binding assay is a measure of the affinity of the compound for a calcium antagonist binding site. The test procedures are described in greater detail below.\nAntioxidant activity was measured using a phospholipid oxidation assay. Liposomes formed from dilineoleolyl phosphocholine were exposed to Fe^+3 /EDTA (167 μM) and ascorbate (167 μM). Oxidation was measured by conjugate diene formation monitored using UV spectroscopy (Biochim. Biophys. Acta., volume 1081, pages 181-187, (1991)). The IC50 was calculated using the following non-linear regression algorithm: Y=A/[1+(B/X)^c ], wherein A=maximum, B=IC50 and c=cooperativity or relative broadness of the curves. The minimum was assumed to be zero.", "note": "Where two headings read alike, the source gives them in different places."}
{"compound": "Fc1ccc(C(c2ccc(F)cc2)N2CCN(C/C=C/c3ccccc3)CC2)cc1", "note": "[Flunarizine]", "values": [{"measurement": "IC50", "setting": "Fe^+3/EDTA (167 μM) and ascorbate (167 μM), conjugate diene formation, read-out: Phospholipid Oxidation IC50", "value": 149, "unit": "µM"}, {"measurement": "IC50", "setting": "Summary of Activity table, read-out: Phosopholipid Oxidation IC50", "value": 149, "unit": "µM"}]}
